PMC10163288
The list shows a part of the results.

B1: il10ra_site1_sap_20_mot_HHH_b2_04680_000000215_0001_1_16_H_._HHH_b1_02695_0001_0000200018_0000001_0_0001_af2pred_0001 (protein)
chain: SSSSDEEEVEKEIRELLEEARKISDRREVAYLLTRAFALATKLGDPELEELVRRVAKELASSSSS
B2: il10ra_site1_sap_11_mot_HHH_b2_03438_af2_000000049_0001_18_34_H_._HHH_b2_03634_0001_0000200045_0000001_0_0001 (protein)
chain: SSSSDEEIERILKLIQEAFRLALRGDPEEAKRLLEEAEELAEEINDPRLLRMARDLLEAINSSSS
B3: il10ra_site1_sap_15_mot_HHH_b2_04646_000000019_0001_1_20_H_._HHH_b1_08112_af2_0001_0000300009_0000001_0_0001 (protein)
chain: SSSSDVEEEVEELLEQAEELARRGNPEEAYKLLKEAAELASEANDPELQRLVVEVSRRVIGSSSS
B4: il10ra_site1_sap_19_mot_HHH_b2_03684_000000265_0001_40_56_H_._70f831dd54c9627821668b4a84eabd29_0001_1_0001_0000400010_0000001_0_0001 (protein)
chain: SSSSNEETQEVFRALERIMELAAEGNPEEARKLAEELEELIEELGNRLFLIQLRFVLRRLSSSSS
B5: il10ra_site1_sap_15_mot_HHH_b1_05056_000000217_0001_1_20_H_._HHH_b2_05962_0001_0000200009_0000002_0_0001 (protein)
chain: SSSSSEVEREVEEILEEVEELRRQGDPREAIKLLLEALKLAYRAKNPELLRLIWEVVERIGSSSS
B6: il10ra_site1_sap_23_mot_HHH_b1_04940_000000219_0001_1_18_H_._HHH_b1_06522_0001_0000300012_0000001_1_0001 (protein)
chain: SSSSDEEEAEEVLRKYEELLEEVHKKDVHKAYEVLKEAIELLLELGDAEAALEISRFFYRISSSS
B7: il10ra_site1_normal_mot_6bb093d23f5042b6c551c363657da53b_0001_1_000000153_0001_51_65_H_._HHH_b1_01157_0002_0000400029_0000001_0_af2pred_0001 (protein)
chain: SSSSDREERLEELVEEIEELLEEGDRERVARLLVELAKLAAELNDEEALRLVVELAKLLYSSSSS
B8: il10ra_site1_normal_mot_HHH_b1_00103_000000293_0001_1_15_H_._HHH_b2_03403_0001_0000600051_0000002_0_af2pred_dldesign_0_af2pred (protein)
chain: SSSSSSSPLDEETVRLIKKAHELEDPEEAKKVIEKAVELAKKAGSEILLHAAEYLLKQVSSSSSS
B9: il10ra_site1_sap_24_mot_HHH_b2_05797_000000294_0001_1_19_H_._HHH_b1_00484_0001_0000200007_0000001_0_0001 (protein)
chain: SSSSDEEVEEVVHLLQKAFRLLLRGNPEEARKLLEEAEELAEEANDPRLLRIIRDMLRDTSSSSS
B10: il10ra_site1_normal_mot_HHH_b2_07569_000000265_0001_38_56_H_._HHH_b2_05235_0001_0000200013_0000001_0 (protein)
chain: SSSSSSDVEELLEEAQELRERGNPEEAAEVLLRALQRIYELGDEELVQELWELVRRIFSSSSSSS
B11: il10ra_site1_sap_8_mot_HHH_b2_07596_000000080_0001_23_39_H_._HHH_b1_07436_0001_0000300022_0000001_0_0001_af2pred_0001 (protein)
chain: SSSSSEEEKRARELYEELRELIEEGDREEVKKVFHELVRLALEGNDREAARLIAEILRRRSSSSS
B12: il10ra_site1_normal_mot_HHH_b1_05357_000000034_0001_23_39_H_._HHH_b1_01707_af2_0001_0000400015_0000001_0_af2pred_0001 (protein)
chain: SSSSDEEEREELEKQVEEALRRGDPHRAAYIVIRLFALANKLNDPELRKLAEELAREVAELSSSS
B13: il10ra_site1_sap_11_mot_HHH_b1_00456_000000263_0001_1_17_H_._HHH_b2_01341_af2_0001_0000100005_0000002_0_0001 (protein)
chain: SSSSDVEEEVERLIEEAERLLEEGDPREAARVLQEAVRLAYESGDEELLQLIWELVHEIAKSSSS
B14: il10ra_site1_normal_mot_HHH_b1_04100_af2_000000180_0001_1_19_H_._HHH_b1_03786_0001_0000200014_0000001_0_af2pred_0001 (protein)
chain: SSSSSHIERLLRIALKALEYAVELGDEEAIRRTTKDIRASARDANDPEVEERAEELLREFGSSSS
B15: il10ra_site1_sap_27_mot_HHH_b1_06128_000000102_0001_1_20_H_._HHH_b2_05585_af2_0001_0000500028_0000002_0_0001_af2pred_0001 (protein)
chain: SSSSSNSEEVVKLLRRAIEALRQGDEEEARKLLEEAEEIAEEANNPLLQKLLELLKRQINSSSSS
B16: il10ra_site1_sap_15_mot_HHH_b1_01563_af2_000000118_0001_40_54_H_._HHH_b2_04514_0001_0000300013_0000002_0_0001 (protein)
chain: SSSSSSEEVEELLEEIREAAEEGDHRRVYELLRRVAELAHELEDPELSRRILELLREWIHSSSSS
B17: il10ra_site1_normal_mot_HHH_b2_00273_000000062_0001_23_39_H_._HHH_b2_00672_af2_0001_0000100004_0000001_0 (protein)
chain: SSSSSEEEELEELIEEIRKLIERNDPERALRLLQKLVQLAFRLRDPEALRIAWELAKLLGSSSSS
B18: il10ra_site1_normal_mot_HHH_b1_02997_000000220_0001_39_52_H_._HHH_b2_07229_0001_0000400021_0000001_0_af2pred_0001 (protein)
chain: SSSSSEEQEEAIRLLREAAELLADGNPEEAEELVERALELAREAGDPELELIAEYLLKQLSSSSS
B19: il10ra_site1_sap_21_mot_HHH_b2_05264_000000272_0001_1_21_H_._006bfdfc862164e346ab3bed36ecaee2_0001_1_0001_0000400017_0000001_0_0001 (protein)
chain: SSSSDEEEYRREVEELLEEAEHIPDDEEASKLLLEAVRLAFELQDPELLRLIWEVVRRVASSSSS
B20: il10ra_site1_normal_mot_HHH_b2_03434_000000017_0001_1_19_H_._HHH_b1_01284_0001_0000100005_0000002_0 (protein)
chain: SSSSDEADEIYKLLRRIIELINEGNPEEAQELLKEVRELAEELNDPVMRFLVEFLQEELERSSSS
B21: il10ra_site1_normal_mot_HHH_b2_02053_af2_000000006_0001_3_19_H_._HHH_b2_05626_0001_0000400022_0000002_0_af2pred_0001 (protein)
chain: SSSSSSASEEVRRLLREALHIDDPEEAEKVVEEALEVAEENNNLVAALIAEFLLRRLRNSSSSSS
B22: il10ra_site1_sap_19_mot_HHH_b2_03328_af2_000000127_0001_1_19_H_._HHH_b1_03999_af2_0001_0000400025_0000001_0_0001 (protein)
chain: SSSSSDEELFELAEEALELMANGNPEEARKVLEEAIELAEELGNQVVLHALRLLLEDLNSSSSSS
B23: il10ra_site1_sap_21_mot_HHH_b2_02053_af2_000000006_0001_3_19_H_._HHH_b1_07138_0001_0000100004_0000001_0_0001 (protein)
chain: SSSSSDIEEEVEELIEELEKLLRNGDPERASRVAVRALRLIYRLGDAELLRELWEVFTSHSSSSS
B24: il10ra_site1_normal_mot_HHH_b2_00345_af2_000000013_0001_42_56_H_._HHH_b1_01655_0001_0000400040_0000001_0 (protein)
chain: SSSSSSDEYFHEVWELIKRAIEDPREREELVEEAKELAEEYNNEVLKYAVRALEQNLNSSSSSSS
B25: il10ra_site1_normal_mot_HHH_b1_06667_af2_000000019_0001_42_58_H_._HHH_b1_07502_0001_0000400036_0000001_0 (protein)
chain: SSSSYEENARRFIRFLLEDLRHVSEEEREEALEAIRFLVEAHGDPEVEELLEEAEELLERLSSSS
B26: il10ra_site1_sap_19_mot_HHH_b2_00943_af2_000000149_0001_1_17_H_._490a3029bfe5beb5158d6c054c504315_0001_1_0001_0000200008_0000002_0_0001_af2pred_0001 (protein)
chain: SSSSSEEQEVAELLFRVIELWARGNPEEAEEVLKEAERLAKELGDEELERAVEIAKRFVENSSSS
B27: il10ra_site1_sap_24_mot_HHH_b2_01205_000000166_0001_1_19_H_._HHH_b1_08543_0001_0000100008_0000002_0_0001 (protein)
chain: SSSSQEAFKRAKELIERIIQLYEEGNPEEAEKLLEELEELARERGNWALRWTVRLLRRILSSSSS
B28: il10ra_site1_sap_10_mot_HHH_b2_04646_000000019_0001_1_20_H_._HHH_b1_08608_af2_0001_0000200016_0000001_0_0001_af2pred_dldesign_0_af2pred (protein)
chain: SSSSSAKKAKVEELIAKAKKLEDPVERATVLREAHLLADEIKDAEAWKAVVDAAVELYKESSSSS
B29: il10ra_site1_sap_26_mot_HHH_b2_06857_af2_000000179_0001_42_54_H_._HHH_b2_06375_0001_0000600034_0000002_0_0001_af2pred_0001 (protein)
chain: SSSTFTERVIELLKRVIELDHEGDLEEAEELLEEAKRLAEEGNNLALRKSVEHLQRIVELTSSSS
B30: il10ra_site1_sap_18_mot_HHH_b2_02745_000000002_0001_1_20_H_._HHH_b2_07311_0001_0000300008_0000002_0_0001_af2pred_0001 (protein)
chain: SSSSSQEELELRVLIRLAKSALRDGNPRAARILLEFARELAEELGTPLVEEVERLLEELNSSSSS
B31: il10ra_site1_sap_22_mot_HHH_b2_02736_000000092_0001_22_38_H_._HHH_b1_03416_af2_0001_0000100002_0000002_1_0001 (protein)
chain: SSSSSVVEIAQEALHLAAQLNDEEAFQAIWELVKKYVETGDERIREELEELLEELEEELDSSSSS
B32: il10ra_site1_sap_28_mot_HHH_b1_05377_000000047_0001_42_55_H_._HHH_b1_07584_af2_0001_0000100001_0000001_0_0001 (protein)
chain: SSSSDEVREEVEELIEEVEELLRRGNPEEAMRVLAEALQLVLRAGDEELLRELWELAKKLASSSS
B33: il10ra_site1_sap_18_mot_HHH_b1_00682_000000235_0001_1_20_H_._HHH_b2_01115_0001_0000400025_0000001_0_0001 (protein)
chain: SSSDAEQATRAAEHALEVLLRDGNPEEAEIALEFWARLDEADGNPELAEELREIFEELKEKLSSS
B34: il10ra_site1_sap_25_mot_HHH_b2_07873_af2_000000172_0001_1_19_H_._HHH_b1_04175_0001_0000100003_0000001_0_0001_af2pred_0001 (protein)
chain: SKEDRIRLSAENAADLAGVPSFEVEVHNGHLEVTLEGNDEAVRQAELLIRLAAKLLGIPVEVTTE
B35: il10ra_site1_normal_mot_8756ee2cf497b5429c717dfc0c0bcfd6_0001_000000186_0001_1_13_H_._HHH_b1_05110_0001_0000500026_0000002_0_af2pred_0001 (protein)
chain: SSSSNEELERVYRLLRRLAELLSEGDDEEARELIEEAKQLIEELNNETLRAILEFLEKILNSSSS
B36: il10ra_site1_sap_20_mot_7b9cde51a6333c7db752d4c93e9fe982_0001_000000133_0001_1_12_H_._HHH_b2_00556_0001_0000100005_0000001_0_0001 (protein)
chain: SSSSSSSSEEEVEEILEEAEKVDDQEEANEILLEALKLAAELQDPEALRLVWRVVERLSSSSSSS
B37: il10ra_site1_normal_mot_HHH_b2_03425_000000200_0001_22_39_H_._HHH_b2_00266_0001_0000500010_0000002_0 (protein)
chain: SSSSDESEEIYELLREAIELIREGNPEEAREVLEQARELAEENNNENLLFIVEFLERELNSSSSS

Target: il10ra, Q13651
Assay: yeast display titration

Apparent Kd, inactive:
B1 no binding seen, B2 no binding seen, B3 no binding seen, B4 no binding seen, B5 no binding seen, B6 no binding seen, B7 no binding seen, B8 no binding seen, B9 no binding seen, B10 no binding seen, B11 no binding seen, B12 no binding seen, B13 no binding seen, B14 no binding seen, B15 no binding seen, B16 no binding seen, B17 no binding seen, B18 no binding seen, B19 no binding seen, B20 no binding seen, B21 no binding seen, B22 no binding seen, B23 no binding seen, B24 no binding seen, B25 no binding seen, B26 no binding seen, B27 no binding seen, B28 no binding seen, B29 no binding seen, B30 no binding seen, B31 no binding seen, B32 no binding seen, B33 no binding seen, B34 no binding seen, B35 no binding seen, B36 no binding seen, B37 no binding seen
